Reference: patent US20240002501A1
These are yes or no findings as the source states them, for the method shown. Some entries that bind do so weakly or less than the wild type.

The chains behind the UniProt entries cited, without tags or fusion partners. Residues count along the entry.
UniProt P32004, residues 20-1120: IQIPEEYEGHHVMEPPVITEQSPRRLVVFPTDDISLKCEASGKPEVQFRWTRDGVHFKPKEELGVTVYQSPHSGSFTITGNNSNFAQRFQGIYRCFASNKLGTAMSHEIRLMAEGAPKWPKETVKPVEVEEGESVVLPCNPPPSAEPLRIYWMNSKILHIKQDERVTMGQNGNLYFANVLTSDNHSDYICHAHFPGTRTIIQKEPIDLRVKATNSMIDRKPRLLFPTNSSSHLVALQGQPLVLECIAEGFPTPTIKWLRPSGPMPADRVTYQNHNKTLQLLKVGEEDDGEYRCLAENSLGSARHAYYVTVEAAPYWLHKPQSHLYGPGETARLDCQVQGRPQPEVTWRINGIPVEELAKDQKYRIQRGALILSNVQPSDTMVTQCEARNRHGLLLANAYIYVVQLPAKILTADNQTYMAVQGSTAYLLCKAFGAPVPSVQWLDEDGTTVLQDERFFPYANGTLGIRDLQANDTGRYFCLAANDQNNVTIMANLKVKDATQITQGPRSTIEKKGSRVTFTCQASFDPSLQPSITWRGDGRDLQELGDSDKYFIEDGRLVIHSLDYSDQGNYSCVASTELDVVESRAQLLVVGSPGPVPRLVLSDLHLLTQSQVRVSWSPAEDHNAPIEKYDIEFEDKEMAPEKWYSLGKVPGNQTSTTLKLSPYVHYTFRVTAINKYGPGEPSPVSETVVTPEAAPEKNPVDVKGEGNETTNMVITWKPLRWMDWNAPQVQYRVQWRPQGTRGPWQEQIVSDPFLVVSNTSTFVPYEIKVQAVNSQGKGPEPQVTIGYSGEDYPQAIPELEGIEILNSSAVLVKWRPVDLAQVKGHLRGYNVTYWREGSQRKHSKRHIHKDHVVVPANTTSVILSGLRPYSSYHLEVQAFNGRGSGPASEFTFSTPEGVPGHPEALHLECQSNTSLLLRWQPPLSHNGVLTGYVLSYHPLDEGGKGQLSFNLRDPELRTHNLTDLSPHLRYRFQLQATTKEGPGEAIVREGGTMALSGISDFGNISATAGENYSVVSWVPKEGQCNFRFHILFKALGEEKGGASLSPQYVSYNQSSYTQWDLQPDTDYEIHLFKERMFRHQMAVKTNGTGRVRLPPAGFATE

Key:
L1-CAM-Fc [1] = biological target: L1-CAM-Fc (UniProt P32004); test: worded affinity comparison; the filing's affinity assay is SPR on L1-CAM-Fc (FIG. 28-30)
L1-CAM-Fc [2] = biological target: L1-CAM-Fc (UniProt P32004); test: SPR sensorgram (Biacore T100), L1-CAM-Fc immobilised on CM5 chip
L1-CAM-Fc [3] = biological target: L1-CAM-Fc (UniProt P32004); test: SPR (Biacore T100), L1-CAM-Fc immobilized on CM5 chip

Measured: binding

B1: huE72-IgG1 (huE72 H1/L2) (antibody, V domains shown)
VH: QVQLVQPGAEVVKPGASVKLSCKASGYTFTGYWMHWVKQAPGQGLEWIGEINPSNGRTNYNERFKSKATLTVDKSITTAFMELSRLRSDDTAVYFCARDYYGTSYNFDYWGQGTLLTVSS
VL: DIQMTQSPSSLSVSVGDRVTITCKANEDINNRLAWYQQKPGKAPKLLISGATNLVTGVPSRFSGSGSGTDYTLTISSLQPEDFATYYCQQYWSTPFTFGQGTELEIKR
binds: all assays above
